The text below walks through data of patent publication US20160175293A1, “PIM KINASE INHIBITOR COMBINATIONS” (priority 2013, published 2016).

For the data set the following is noted: 500 mg, Day 1.

Each structure is given as a SMILES string.

Consider `C[C@@H]1C[C@H](N)C[C@H](c2ccncc2NC(=O)c2ccc(F)c(-c3c(F)cccc3F)n2)C1` [Compound A, N-(4-((1R,3S,5S)-3-amino-5-methylcyclohexyl)pyridin-3-yl)-6-(2,6-difluorophenyl)-5-fluoropicolinamide], for which the “time of peak drug concentrations post dose” value is 3 to 8 h.
